In the supplement of paper PMC3334620:
The full ranking holds about 33,000 sequences; the median of “E-score (-0.5 to 0.5)” is about -8e-05, and the highest 2% start at about 0.23. The list shows a part of the results.

Each sequence was assayed against T1, Nrg2 (UniProt P38082) (assay: PBM E-score (8-mer binding enrichment) (E-score (-0.5 to 0.5)); higher = stronger / more preferred TF binding). Conditions: protein concentration: 100 nM; construct: GST-full length.
T1 sequence: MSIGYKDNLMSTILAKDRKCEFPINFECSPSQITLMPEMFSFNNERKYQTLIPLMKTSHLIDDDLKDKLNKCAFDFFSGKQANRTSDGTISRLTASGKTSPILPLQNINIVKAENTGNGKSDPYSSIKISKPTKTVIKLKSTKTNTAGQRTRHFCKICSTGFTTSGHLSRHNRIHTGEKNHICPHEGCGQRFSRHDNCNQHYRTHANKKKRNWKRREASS
Outline: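 Using PURExpress in vitro transcription/translation, GST-tagged yeast transcription factors were made in full-length or DNA-binding-domain form. These were applied at about 100-200 nM to double-stranded universal all-10-mer Agilent arrays, and bound protein was detected with fluorescent anti-GST. Scans were normalised with masliner before the Universal PBM Analysis Suite assigned E-scores to ungapped eight-base words pooled with their reverse complements.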

| Sequence | PBM E-score |
| --- | --- |
| AGTGTGCC | 0.0855 |
| CCCGAAAA | 0.129 |
| CACGCTTA | -0.0853 |
| AGGCTAAT | 0.0429 |
| AATGCTGT | -0.165 |
| GCCTGCCA | -0.147 |
| CATGTACC | -0.265 |
| AAACCAAA | 0.0963 |
| ACTGTAAA | 0.141 |
| TGACCGAA | -0.0761 |
| ATGGGTAG | -0.13 |
| CATAAGAC | -0.0288 |
| ACCCGGAG | -0.063 |
| GAACTTGC | -0.132 |
| CTTCGATA | -0.0721 |
| GCCGACAC | -0.0613 |
| GAGGATTA | -0.0617 |
| GGCAGTAA | 0.0379 |
| GCAGCACA | 0.0607 |
| ATCGACTC | -0.144 |
| AGTCATCA | -0.0384 |
| AGCCCAAC | -0.0546 |
| CGTCGCAG | 0.0454 |
| ACGTAACC | -0.0912 |
| GGACATTA | 0.14 |

| Sequence | PBM E-score |
| --- | --- |
| GGATGGTA | 0.11 |
| CCCGGTGA | -0.253 |
| CAATGATG | -0.0307 |
| ACTGACCG | -0.0539 |
| CATCTTGA | 0.0489 |
| CGTGACAA | 0.0462 |
| CTTCCCGA | 0.148 |
| GGAGATAC | 0.0795 |
| ATCTTGAG | -0.00416 |
| CAGGGCGA | 0.0867 |
| GGGACGAA | 0.0439 |
| AACGCATT | 0.0262 |
| CCCCTCCC | -0.102 |
| TAAAAGTA | -0.0146 |
| AATCAAGA | 0.087 |
| ATGGCCCA | -0.0568 |
| GATTTCAA | 0.0258 |
| TGATAAAA | 0.101 |
| ATGATTAG | 0.142 |
| AGCCACCT | -0.109 |
| GGCTACCA | -0.214 |
| ATAGGACG | -0.0185 |
| CGTTACGA | 0.0925 |
| GCATGCGA | 0.226 |
| GCCGTGAC | -0.00204 |

| Sequence | PBM E-score |
| --- | --- |
| GGTTCTGA | 0.107 |
| GGACTTCA | -0.0141 |
| CGTAGCAG | -0.0289 |
| ACTTGGCA | -0.232 |
| GTTCTCAA | 0.193 |
| AGCCTATG | -0.269 |
| GATGGACC | 0.148 |
| CGACGCAC | -0.0196 |
| ACTTCGCG | 0.144 |
| ACTACAAG | -0.119 |
| AATACTCG | 0.126 |
| CTACAAGA | -0.0397 |
| CGTCTGTC | 0.062 |
| CGCGCACG | -0.0646 |
| GACATGAA | 0.0283 |
| CGCTTTCA | 0.136 |
| CTCTAACC | -0.189 |
| CAGCTCCG | 0.0111 |
| CTTCTAAC | -0.256 |
| TAAGCCTA | -0.0394 |
| AACTATAA | 0.0489 |
| CATGTAGC | 0.067 |
| TCTTTGCA | -0.00335 |
| AAGCGTGC | -0.0719 |
| GCATACGA | 0.0243 |

| Sequence | PBM E-score |
| --- | --- |
| ATGACCCG | -0.158 |
| CCGCAGAA | 0.245 |
| CGTTTTCC | -0.0105 |
| CTCAGGTC | 0.0301 |
| CATGACCC | 0.0364 |
| CACTTGCC | -0.0455 |
| GCCACCAC | -0.12 |
| CTCAACCC | 0.00526 |
| ATTTATGG | 0.0435 |
| GGAACAGA | -0.00079 |
| CTGCCTAA | -0.0806 |
| GGCGATGA | -0.0321 |
| CGGCCAGC | -0.00057 |
| AGCCCGAG | -0.154 |
| AGAGCTCT | -0.0952 |
| CCAAGCCG | -0.0871 |
| ACCAGCAC | -0.0518 |
| CGAACTTA | 0.0832 |
| CGACGTGC | 0.0858 |
| ATCGTCTA | -0.143 |
| CCTCGAAA | 0.0849 |
| AAGGAGTA | -0.0119 |
| AATTGTCG | 0.207 |
| TATGGCCA | 0.103 |
| CTTAACTC | 0.0351 |

| Sequence | PBM E-score |
| --- | --- |
| AGTCGACA | 0.194 |
| ATCCGCGA | 0.0232 |
| AAGGTATA | -0.0404 |
| TAAGCGCA | -0.169 |
| ACCAATGG | -0.0348 |
| CCCCAGAA | -0.0495 |
| CACCCACC | 0.0416 |
| ACAGTCAC | -0.137 |
| CCCAGAGC | -0.234 |
| GGCATACA | 0.0592 |
| TAAGTTGA | -0.00176 |
| CAGGCGTA | 0.00424 |
| ACTTCCCT | 0.137 |
| GAGTGCCC | -0.0655 |
| GGTTCACA | 0.103 |
| AACAAGTT | -0.0278 |
| AGTGCAGA | -0.0644 |
| AGTACAGC | -0.00081 |
| AAAACCGC | -0.0198 |
| AGGTCGTA | -0.0728 |
| ACTCCTCA | -0.24 |
| ATACAATC | -0.0431 |
| AAACTCCA | -0.0585 |
| ACGACTAG | -0.00103 |
| CGCCCGCC | 0.085 |

Reformatted with tabs: entries from further up.
Sequence	PBM E-score
AAGGTATA	-0.0404
CACCCACC	0.0416
GAGTGCCC	-0.0655
AGTGCAGA	-0.0644
AAAACCGC	-0.0198
ATACAATC	-0.0431

Part of the list above, in CSV form.
Sequence,PBM E-score
GGCATACA,0.0592
TAAGTTGA,-0.00176
CAGGCGTA,0.00424

Later entries.

| Sequence | PBM E-score |
| --- | --- |
| CATGGCGC | 0.0143 |
| CACGACGC | -0.00663 |
| ACGGGGCG | 0.173 |
| CGCATCCG | 0.0205 |
| ATCCATTA | 0.0714 |
| AGATTTGC | 0.167 |
| ATACATCG | 0.0815 |
| AACGCATG | 0.0235 |
| ATCGCCAA | -0.0232 |
| GGGTCGCA | -0.07 |
| ACCATGCG | -0.051 |
| ATGTCCTC | 0.0325 |
| CATTGGTA | 0.0651 |
| GCTCTTGA | -0.00498 |
| CGCCTATC | 0.0245 |
| CGTGTGGC | -0.0389 |
| ACTACCAG | -0.136 |
| AGTCATGG | -0.0826 |
| CTCACACC | -0.204 |
| AGAGAATG | 0.0251 |
| AATAAAGT | 0.252 |
| GCTATGCC | -0.189 |
| CCCTGCTA | 0.0162 |
| TCTATCAA | 0.0406 |
| TGATTACA | 0.0322 |

| Sequence | PBM E-score |
| --- | --- |
| AGCTACTG | 0.0202 |
| TAACGCCA | -0.0901 |
| ATGCCTAG | -0.0724 |
| CAACCTCC | -0.184 |
| ATCAAGAA | 0.0761 |
| AGTATCCA | 0.0505 |
| ACCCCTAT | 0.256 |
| AAGATGAA | 0.149 |
| CGACCTGC | -0.0924 |
| GTCAACGA | 0.0389 |
| CGATGTGC | 0.018 |
| CAGTGTGA | 0.108 |
| ACTCCCAC | -0.00873 |
| GATGGCCA | 0.0154 |
| TGATACAA | 0.112 |
| GTGCGTTA | 0.0327 |
| ACCATTCT | -0.0116 |
| GACAGGAA | 0.103 |
| CACCCTGA | 0.201 |
| CTGCGCAA | 0.142 |
| CGATCCGA | 0.117 |
| CACCCTCC | -0.112 |

4 records picked at random from those above:

| Sequence | PBM E-score |
| --- | --- |
| AAACTCCA | -0.0585 |
| GATGGACC | 0.148 |
| CTTCTAAC | -0.256 |
| CATGTAGC | 0.067 |
